Measurements reported in the supplement of paper PMC4604168 (melanoma cell lines).
This is one part of the list. Repeats are few or missing, and single values can be far off.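 Cells were imaged in 1,536-well plates, and nuclei stained with an antibody against cleaved PARP were counted against all DNA-stained nuclei to give the apoptosis fraction. Screening doses were chosen to leave most cells alive, and resting and induced cleaved-PARP levels differ strongly between cell lines.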

Columns and labels:
Assay in all cases: cleaved PARP positive nuclei fraction relative to DMSO control; melanoma cells; higher = more apoptosis
Details in all cases: library dose: low library concentration; 72 h
501Mel = system: 501Mel
A101D = system: A101D
A2058 = system: A2058
C32 = system: C32
CBRC008 = system: CBRC008 (line from a melanoma biopsy)
CBRC014 = system: CBRC014 (line from a melanoma biopsy)
CBRC016 = system: CBRC016 (line from a melanoma biopsy)
CBRC017 = system: CBRC017 (line from a melanoma biopsy)

Structure (SMILES)	cleaved PARP positive nuclei fraction (501Mel)	cleaved PARP positive nuclei fraction (A101D)	cleaved PARP positive nuclei fraction (A2058)	cleaved PARP positive nuclei fraction (C32)	cleaved PARP positive nuclei fraction (CBRC008)	cleaved PARP positive nuclei fraction (CBRC014)	cleaved PARP positive nuclei fraction (CBRC016)	cleaved PARP positive nuclei fraction (CBRC017)
Cn1c(=O)n(-c2ccc(C(C)(C)C#N)cc2)c2c3cc(-c4cnc5ccccc5c4)ccc3ncc21 + O=C(Oc1ccc([N+](=O)[O-])cc1)N1CCC(C(O)(c2ccc3c(c2)OCO3)c2ccc3c(c2)OCO3)CC1 [JZL184] (first compound 0.004 µM, partner dose 1 µM)	87.3%	11.4%	96.3%	241%	84.6%	98.8%	41.3%	84.5%
Cn1cc(C2=C(c3cn(C4CCN(Cc5ccccn5)CC4)c4ccccc34)C(=O)NC2=O)c2ccccc21 [Enzastaurin] + O=C(Nc1ccccc1)c1cc([N+](=O)[O-])ccc1Cl [GW9662] (first compound 0.8 µM, partner dose 2 µM)	67.5%	35.6%	126%	87.1%	128%	118%	39.4%	82.7%
CCCCCCCCc1ccc(CCC(N)(CO)CO)cc1 [fingolimod] + C/C(O)=C(\C#N)C(=O)Nc1cc(Br)ccc1Br [LFM-A13] (first compound 2 µM, partner dose 2 µM)	72.2%	49.5%	346%	81.3%	72.6%	90.7%	71.3%	186%
CC(=O)c1c(C)c2cnc(Nc3ccc(N4CCNCC4)cn3)nc2n(C2CCCC2)c1=O [palbociclib] + C/C(O)=C(\C#N)C(=O)Nc1cc(Br)ccc1Br [LFM-A13] (first compound 0.04 µM, partner dose 2 µM)	195%	61.3%	273%	113%	81.8%	116%	68.3%	118%
N.N.[Cl][Pt][Cl] [cisplatin] + Oc1nc(-c2ccc(C(F)(F)F)cc2)nc2c1CSCC2 [XAV939] (first compound 1.6 µM, partner dose 2 µM)	64.8%	37.2%	49%	42.3%	167%	127%	104%	114%
CCCS(=O)(=O)Nc1ccc(F)c(C(=O)c2c[nH]c3ncc(Cl)cc23)c1F + C/C(O)=C(\C#N)C(=O)Nc1cc(Br)ccc1Br [LFM-A13] (first compound 0.08 µM, partner dose 2 µM)	67.5%	34.5%	47.6%	45.3%	33%	241%	56.1%	79.5%
CC(C)C[C@H](NC(=O)[C@H](Cc1ccccc1)NC(=O)c1cnccn1)B(O)O [Bortezomib] + O=C(Oc1ccc([N+](=O)[O-])cc1)N1CCC(C(O)(c2ccc3c(c2)OCO3)c2ccc3c(c2)OCO3)CC1 [JZL184] (first compound 0.001 µM, partner dose 1 µM)	199%	400%	97.6%	167%	3610%	636%	405%	312%
CC(=O)c1c(C)c2cnc(Nc3ccc(N4CCNCC4)cn3)nc2n(C2CCCC2)c1=O [palbociclib] + O=C(Oc1ccc([N+](=O)[O-])cc1)N1CCC(C(O)(c2ccc3c(c2)OCO3)c2ccc3c(c2)OCO3)CC1 [JZL184] (first compound 0.04 µM, partner dose 1 µM)	123%	38%	85%	24.9%	77.6%	123%	111%	95.3%
COc1cc([C@@H]2c3cc4c(cc3[C@@H](O[C@@H]3O[C@@H]5CO[C@@H](C)O[C@H]5[C@H](O)[C@H]3O)[C@H]3COC(=O)[C@H]23)OCO4)cc(OC)c1O [etoposide] + Cc1cc(SCc2sc(-c3ccc(C(F)(F)F)c(F)c3)nc2C)ccc1OCC(=O)O [GW0742] (first compound 0.02 µM, partner dose 2 µM)	56.3%	8.13%	96.9%	35.5%	50.2%	77.1%	81%	176%
Cn1cc(C2=C(c3cn(C4CCN(Cc5ccccn5)CC4)c4ccccc34)C(=O)NC2=O)c2ccccc21 [Enzastaurin] + O=c1cc(-c2cccc3c2Sc2ccccc2S3)oc(N2CCOCC2)c1 [KU55933] (first compound 0.8 µM, partner dose 1 µM)	145%	36.5%	148%	78.5%	157%	120%	81.3%	317%
NC(=O)c1ccc(N(C(N)=O)c2c(F)cccc2F)nc1-c1ccc(F)cc1F + O=C(Oc1ccc([N+](=O)[O-])cc1)N1CCC(C(O)(c2ccc3c(c2)OCO3)c2ccc3c(c2)OCO3)CC1 [JZL184] (first compound 0.4 µM, partner dose 1 µM)	152%	14.5%	93.7%	85.9%	33.7%	107%	51.5%	95.2%
CCCS(=O)(=O)Nc1ccc(F)c(C(=O)c2c[nH]c3ncc(Cl)cc23)c1F + O=C(Oc1ccc([N+](=O)[O-])cc1)N1CCC(C(O)(c2ccc3c(c2)OCO3)c2ccc3c(c2)OCO3)CC1 [JZL184] (first compound 0.08 µM, partner dose 1 µM)	70.3%	31.1%	54.7%	49.3%	63.4%	99.3%	151%	99.7%
Nc1nc(F)nc2c1ncn2[C@@H]1O[C@H](CO)[C@@H](O)[C@@H]1O [fludarabine] + C/C(O)=C(\C#N)C(=O)Nc1cc(Br)ccc1Br [LFM-A13] (first compound 0.2 µM, partner dose 2 µM)	2020%	38.5%	43.7%	157%	112%	114%	108%	77.7%
C[C@]1(O)C[C@@H](c2nc(-c3ccc4ccc(-c5ccccc5)nc4c3)c3c(N)nccn32)C1 + C/C(O)=C(\C#N)C(=O)Nc1cc(Br)ccc1Br [LFM-A13] (first compound 0.4 µM, partner dose 2 µM)	100%	70.7%	165%	40.5%	361%	118%	40.6%	95.9%
Cc1ccc(Nc2nccc(N(C)c3ccc4c(C)n(C)nc4c3)n2)cc1S(N)(=O)=O [Pazopanib] + O=C(Oc1ccc([N+](=O)[O-])cc1)N1CCC(C(O)(c2ccc3c(c2)OCO3)c2ccc3c(c2)OCO3)CC1 [JZL184] (first compound 0.4 µM, partner dose 1 µM)	65%	61.6%	88.8%	104%	410%	120%	61.4%	88.7%
C[C@@H](N)c1ccc(C(=O)Nc2ccnc3[nH]ccc23)cc1 + Cc1cc(SCc2sc(-c3ccc(C(F)(F)F)c(F)c3)nc2C)ccc1OCC(=O)O [GW0742] (first compound 0.4 µM, partner dose 2 µM)	218%	31.5%	166%	1650%	65.2%	50.7%	170%	87.8%
C[C@@H](Oc1cc(-c2cnn(C3CCNCC3)c2)cnc1N)c1c(Cl)ccc(F)c1Cl [Crizotinib] + C/C(O)=C(\C#N)C(=O)Nc1cc(Br)ccc1Br [LFM-A13] (first compound 0.2 µM, partner dose 2 µM)	76.8%	47%	84.2%	39.3%	114%	103%	47%	81.2%
O=C(O)c1ccc2c(c1)nc(Nc1cccc(Cl)c1)c1ccncc12 + Cc1cc(SCc2sc(-c3ccc(C(F)(F)F)c(F)c3)nc2C)ccc1OCC(=O)O [GW0742] (first compound 0.4 µM, partner dose 2 µM)	52.7%	32.9%	48.8%	101%	198%	131%	125%	220%
O=c1[nH]nc(Sc2ncc([N+](=O)[O-])s2)n1-c1ccc2c(c1)OCCO2 + O=C(Oc1ccc([N+](=O)[O-])cc1)N1CCC(C(O)(c2ccc3c(c2)OCO3)c2ccc3c(c2)OCO3)CC1 [JZL184] (first compound 0.2 µM, partner dose 1 µM)	75.9%	29.8%	105%	156%	92.4%	114%	48.6%	145%
C[C@]12O[C@H](C[C@]1(O)CO)n1c3ccccc3c3c4c(c5c6ccccc6n2c5c31)CNC4=O [Lestaurtinib] + O=C(Oc1ccc([N+](=O)[O-])cc1)N1CCC(C(O)(c2ccc3c(c2)OCO3)c2ccc3c(c2)OCO3)CC1 [JZL184] (first compound 0.004 µM, partner dose 1 µM)	127%	29.5%	75%	64.9%	281%	154%	77.8%	123%
CC(=O)c1c(C)c2cnc(Nc3ccc(N4CCNCC4)cn3)nc2n(C2CCCC2)c1=O [palbociclib] + Cc1cc(SCc2sc(-c3ccc(C(F)(F)F)c(F)c3)nc2C)ccc1OCC(=O)O [GW0742] (first compound 0.04 µM, partner dose 2 µM)	129%	20.4%	64.1%	46.6%	34.6%	125%	82.8%	93.9%
O=C(Nc1cc(C(F)(F)F)cc(C(F)(F)F)c1)c1cc(Cl)ccc1O + Cc1cc(SCc2sc(-c3ccc(C(F)(F)F)c(F)c3)nc2C)ccc1OCC(=O)O [GW0742] (first compound 0.016 µM, partner dose 2 µM)	71.7%	32.6%	102%	60.3%	320%	83.7%	85.5%	127%
CC1(C)CCC(c2ccc(Cl)cc2)=C(CN2CCN(c3ccc(C(=O)NS(=O)(=O)c4ccc(N[C@H](CCN5CCOCC5)CSc5ccccc5)c(S(=O)(=O)C(F)(F)F)c4)cc3)CC2)C1 + C/C(O)=C(\C#N)C(=O)Nc1cc(Br)ccc1Br [LFM-A13] (first compound 0.4 µM, partner dose 2 µM)	432%	117%	32.4%	425%	721%	639%	567%	382%

Given in markdown: part of the list above.

| Structure (SMILES) | cleaved PARP positive nuclei fraction (501Mel) | cleaved PARP positive nuclei fraction (A101D) | cleaved PARP positive nuclei fraction (A2058) | cleaved PARP positive nuclei fraction (C32) | cleaved PARP positive nuclei fraction (CBRC008) | cleaved PARP positive nuclei fraction (CBRC014) | cleaved PARP positive nuclei fraction (CBRC016) | cleaved PARP positive nuclei fraction (CBRC017) |
| --- | --- | --- | --- | --- | --- | --- | --- | --- |
| Cc1ccc(Nc2nccc(N(C)c3ccc4c(C)n(C)nc4c3)n2)cc1S(N)(=O)=O [Pazopanib] + O=C(Oc1ccc([N+](=O)[O-])cc1)N1CCC(C(O)(c2ccc3c(c2)OCO3)c2ccc3c(c2)OCO3)CC1 [JZL184] (first compound 0.4 µM, partner dose 1 µM) | 65% | 61.6% | 88.8% | 104% | 410% | 120% | 61.4% | 88.7% |
| C[C@@H](N)c1ccc(C(=O)Nc2ccnc3[nH]ccc23)cc1 + Cc1cc(SCc2sc(-c3ccc(C(F)(F)F)c(F)c3)nc2C)ccc1OCC(=O)O [GW0742] (first compound 0.4 µM, partner dose 2 µM) | 218% | 31.5% | 166% | 1650% | 65.2% | 50.7% | 170% | 87.8% |
